Literature values in patent publication US20160214963A1, “INHIBITORS OF BRUTON'S TYROSINE KINASE” (Beyond Oncology Pharmaceutical LLC, priority 2013, published 2016).
At least one compound was matched to its structure with a doubt left.

Tested on: hypersensitive immune responses
Conditions: rPCA; cited from earlier work

SMILES: CN1CCC(=C2c3ccccc3C=Cc3ccccc32)CC1 [cyproheptadine]
- maximum inhibition of hypersensitive immune responses: 69%
